Record: PubChem BioAssay AID1259308 (NCATS, 2017)
Here is a random part of about 59,000 reagents tested. Of all reagents, about 1,510 (2.6%) were called active. 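Calls use total luciferase alone and ignore viability, so some active siRNAs may act by altering cell number.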 Entries without a mark were called inactive. The numbers tell different reagents against one gene apart. Not all columns of the deposit are shown.

- Test: 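Candidate targets for better recombinant protein yield in mammalian cells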 (primary screen)
- Cell system: human HEK293 embryonic kidney cells stably expressing firefly luciferase (HEK-CMV-Luc2-Hygro)
- Reagents: single siRNA against human genes, 0.8 pmol siRNA per well
- Duration: 72 h
- Detection: 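Luciferase light (ONE-Glo) measured on one replicate plate set and viability (CellTiter-Glo) on the other, scaled to a negative control siRNA, with robust z-scores and luciferase per cell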
- Reading the numbers: total luciferase, z-score and total luciferase, % of control: higher = more reporter protein produced
- Hit rule: 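Active when the median/MAD z-score for overall luciferase is greater than 3; a gene was taken forward for validation with new siRNAs if at least two of its three siRNAs passed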
- Meaning of the calls: active = raised luciferase; inactive = no rise

EPOR (GeneID 2057) #1
- total luciferase, z-score: -0.86
- total luciferase, % of control: 64.8

EPOR (GeneID 2057) #2
- total luciferase, z-score: 0.239
- total luciferase, % of control: 86.6

EPOR (GeneID 2057) #3
- total luciferase, z-score: 0.234
- total luciferase, % of control: 86.5

HEY2 (GeneID 23493) #1
- total luciferase, z-score: -2.34
- total luciferase, % of control: 35.4

HEY2 (GeneID 23493) #2
- total luciferase, z-score: -0.298
- total luciferase, % of control: 76

HEY2 (GeneID 23493) #3
- total luciferase, z-score: -0.864
- total luciferase, % of control: 64.7

TKTL1 (GeneID 8277) #1
- total luciferase, z-score: -0.461
- total luciferase, % of control: 72.7

TKTL1 (GeneID 8277) #2
- total luciferase, z-score: -0.707
- total luciferase, % of control: 67.8

TKTL1 (GeneID 8277) #3
- total luciferase, z-score: -1.73
- total luciferase, % of control: 47.4

NUCLEOLIN (GeneID 4691) #1
- total luciferase, z-score: -0.109
- total luciferase, % of control: 79.7

NUCLEOLIN (GeneID 4691) #2
- total luciferase, z-score: -0.0571
- total luciferase, % of control: 80.7

NUCLEOLIN (GeneID 4691) #3
- total luciferase, z-score: 0.487
- total luciferase, % of control: 91.6

OLFML1 (GeneID 283298) #1
- total luciferase, z-score: -0.324
- total luciferase, % of control: 75.4

OLFML1 (GeneID 283298) #2
- total luciferase, z-score: -0.733
- total luciferase, % of control: 67.3

OLFML1 (GeneID 283298) #3
- total luciferase, z-score: -1.75
- total luciferase, % of control: 47

MUSK (GeneID 4593) #1
- total luciferase, z-score: 1.49
- total luciferase, % of control: 112

MUSK (GeneID 4593) #2
- total luciferase, z-score: -0.118
- total luciferase, % of control: 79.5

MUSK (GeneID 4593) #3
- total luciferase, z-score: 0.132
- total luciferase, % of control: 84.5

THA1P (GeneID 390816) #1
- total luciferase, z-score: -2.85
- total luciferase, % of control: 25.2

THA1P (GeneID 390816) #2
- total luciferase, z-score: 0.479
- total luciferase, % of control: 91.4

THA1P (GeneID 390816) #3
- total luciferase, z-score: -1.15
- total luciferase, % of control: 59.1

ATP9A (GeneID 10079) #1
- total luciferase, z-score: -0.22
- total luciferase, % of control: 77.5

ATP9A (GeneID 10079) #2
- total luciferase, z-score: -0.406
- total luciferase, % of control: 73.8

ATP9A (GeneID 10079) #3
- total luciferase, z-score: 0.712
- total luciferase, % of control: 96

LRRC30 (GeneID 339291) #1
- total luciferase, z-score: 0.166
- total luciferase, % of control: 85.2

LRRC30 (GeneID 339291) #2
- total luciferase, z-score: -0.869
- total luciferase, % of control: 64.6

LRRC30 (GeneID 339291) #3
- total luciferase, z-score: 2.77
- total luciferase, % of control: 137

MRPS18C (GeneID 51023) #1
- total luciferase, z-score: -0.612
- total luciferase, % of control: 69.7

MRPS18C (GeneID 51023) #2
- total luciferase, z-score: -1.75
- total luciferase, % of control: 47.1

MRPS18C (GeneID 51023) #3
- total luciferase, z-score: -0.403
- total luciferase, % of control: 73.9

GZMH (GeneID 2999) #1
- total luciferase, z-score: -0.0401
- total luciferase, % of control: 81.1

GZMH (GeneID 2999) #2
- total luciferase, z-score: 1.25
- total luciferase, % of control: 107

GZMH (GeneID 2999) #3
- total luciferase, z-score: 3.84 (active)
- total luciferase, % of control: 158

Reformatted: results already given
Target gene | reagent no. | total luciferase, z-score | total luciferase, % of control
NUCLEOLIN (GeneID 4691) | 3 | 0.487 | 91.6
OLFML1 (GeneID 283298) | 1 | -0.324 | 75.4
OLFML1 (GeneID 283298) | 2 | -0.733 | 67.3
OLFML1 (GeneID 283298) | 3 | -1.75 | 47
